No constants are given. Whether binding was seen depends on the method and setting. In cells and extracts the contact can be indirect. Here binding means that the protein was enriched with, or labelled near, the bait; the list need not be complete.
Target: Protein A-tagged Fzr (Drosophila melanogaster) (UniProt O18402)
Test: affinity purification with mass spectrometry; PrA-Fzr purified on rabbit IgG-conjugated Dynabeads from lysates of D. mel-2 cells or Drosophila embryos, 4 °C, 2 h; 50 mM K-HEPES pH 7.5, 100 mM AcOK, 100 mM NaCl, 50 mM KCl, 0.1% NP40; eluted with 1 M NH4OH; LC-MS/MS

The chains behind the UniProt entries cited, without tags or fusion partners. Where a name states a change or a piece, a line headed by the entry shows the natural chain unless it says otherwise.
UniProt O18402: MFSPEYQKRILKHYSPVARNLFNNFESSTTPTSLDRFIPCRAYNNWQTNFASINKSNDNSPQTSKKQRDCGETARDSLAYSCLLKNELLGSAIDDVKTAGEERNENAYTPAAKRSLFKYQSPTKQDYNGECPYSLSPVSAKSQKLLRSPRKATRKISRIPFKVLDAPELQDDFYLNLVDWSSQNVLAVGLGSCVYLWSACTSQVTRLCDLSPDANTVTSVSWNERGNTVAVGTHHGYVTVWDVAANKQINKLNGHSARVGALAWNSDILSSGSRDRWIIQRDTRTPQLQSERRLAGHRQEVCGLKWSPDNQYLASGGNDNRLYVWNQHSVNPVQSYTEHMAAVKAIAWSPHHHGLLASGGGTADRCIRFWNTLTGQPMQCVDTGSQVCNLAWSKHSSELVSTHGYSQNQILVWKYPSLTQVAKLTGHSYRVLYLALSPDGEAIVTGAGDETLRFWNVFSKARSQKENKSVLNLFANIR
UniProt P23572: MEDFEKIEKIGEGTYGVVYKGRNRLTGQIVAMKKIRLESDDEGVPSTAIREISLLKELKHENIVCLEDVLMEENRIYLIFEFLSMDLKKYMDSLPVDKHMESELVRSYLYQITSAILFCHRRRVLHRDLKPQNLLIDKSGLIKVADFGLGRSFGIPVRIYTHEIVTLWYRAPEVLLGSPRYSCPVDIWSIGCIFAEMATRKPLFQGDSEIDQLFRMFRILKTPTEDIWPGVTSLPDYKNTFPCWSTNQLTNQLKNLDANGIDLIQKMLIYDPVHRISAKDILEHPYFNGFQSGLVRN
UniProt Q9VV79: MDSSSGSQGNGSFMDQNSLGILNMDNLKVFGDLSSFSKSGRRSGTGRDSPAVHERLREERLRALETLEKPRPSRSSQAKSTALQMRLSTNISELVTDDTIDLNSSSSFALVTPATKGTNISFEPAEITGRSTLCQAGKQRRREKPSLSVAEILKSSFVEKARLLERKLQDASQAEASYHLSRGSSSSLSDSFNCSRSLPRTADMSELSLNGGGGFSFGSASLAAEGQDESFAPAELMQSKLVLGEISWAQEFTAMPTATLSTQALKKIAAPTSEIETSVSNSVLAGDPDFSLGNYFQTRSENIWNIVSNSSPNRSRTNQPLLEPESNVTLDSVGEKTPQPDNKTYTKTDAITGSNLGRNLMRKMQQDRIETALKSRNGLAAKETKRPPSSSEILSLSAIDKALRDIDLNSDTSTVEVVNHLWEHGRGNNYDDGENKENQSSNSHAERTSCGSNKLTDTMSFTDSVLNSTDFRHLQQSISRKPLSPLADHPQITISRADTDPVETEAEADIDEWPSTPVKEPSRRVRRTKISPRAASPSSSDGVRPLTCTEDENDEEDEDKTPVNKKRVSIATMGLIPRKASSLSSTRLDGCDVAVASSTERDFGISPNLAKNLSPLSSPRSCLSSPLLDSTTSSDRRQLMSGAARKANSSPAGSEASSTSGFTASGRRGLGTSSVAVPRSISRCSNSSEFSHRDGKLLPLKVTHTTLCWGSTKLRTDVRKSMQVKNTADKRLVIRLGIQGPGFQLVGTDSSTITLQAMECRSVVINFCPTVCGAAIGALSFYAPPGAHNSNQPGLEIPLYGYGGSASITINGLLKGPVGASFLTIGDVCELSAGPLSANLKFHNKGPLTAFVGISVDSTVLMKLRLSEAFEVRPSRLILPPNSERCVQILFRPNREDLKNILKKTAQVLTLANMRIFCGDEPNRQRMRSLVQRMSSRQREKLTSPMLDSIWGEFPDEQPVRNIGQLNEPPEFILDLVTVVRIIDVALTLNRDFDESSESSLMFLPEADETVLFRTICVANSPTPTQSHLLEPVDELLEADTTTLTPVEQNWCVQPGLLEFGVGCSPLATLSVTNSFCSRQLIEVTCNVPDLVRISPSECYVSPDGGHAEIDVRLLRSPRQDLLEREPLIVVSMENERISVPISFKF

binding	Substance
binds	Cdk1 (endogenous) (from UniProt P23572 1-297)
binds	Spd2 (endogenous) (from UniProt Q9VV79)

Reference: publication PMC5007356
